Results published in patent publication US11484035B2, “Synergistic composition of a nematicide” (TELLURIS BIOTECH INDIA PRIVATE LIMITED, priority 2017, dated 2022).
Some entries share one result that the patent states for a list of compounds. Some compounds share one range, which may span the group rather than tell each member.

system: J2 M. incognita; test: M. incognita J2 juvenile mortality bioassay in 96-well plates; assay type: in vivo, Meloidogyne incognita; settings: peptide alone at 0.8 mg/ml, J2 stage

Sequence	death of juvenile nematodes on Day 5
DLLRPVVIAPQFSRQ (Caenorhabditis elegans) [Peptide 2, 15 amino acid peptide, 99-113 amino acid stretch of CED-4 protein]	60-66%
FPKFMQLHQKFY (Caenorhabditis elegans) [Peptide 12, 12 amino acid peptide, 529-540 amino acid stretch of CED-4 protein]	60-66%
RQMLDRKLLLGNVPKQMTC (Caenorhabditis elegans) [Peptide 3, 19 amino acid peptide, 112-130 amino acid stretch of CED-4 protein]	60-66%
